{"source": "patent US20220259258", "about": "(published 2022)", "experiment": "general procedure: Fmoc solid-phase peptide synthesis in flow", "settings": "whole synthesis, 210 nm", "note": "End groups of sequences in plain letters are not given here."}
{"sequence": "GIGKFLKKAKKFGKAFVKILKK", "values": [{"measurement": "final HPLC purity", "value": ">91", "unit": "%"}]}
